In patent US20200291066A1:
No constants are given. Whether binding was seen depends on the method and setting. Some results given as binding are weak or reduced against the parent protein; the word gives no strength. Sequences can lack the tags named with a protein.

What was measured:
[1] = biological target: T1, human IL-2Rγc (CD132 protein, Fc Tag) (23-254) (human) (UniProt P31785); assay: competition phage ELISA; competitor phage clone SEQ ID NO 266; + = peptide competes with phage binding
T1 sequence (looked up): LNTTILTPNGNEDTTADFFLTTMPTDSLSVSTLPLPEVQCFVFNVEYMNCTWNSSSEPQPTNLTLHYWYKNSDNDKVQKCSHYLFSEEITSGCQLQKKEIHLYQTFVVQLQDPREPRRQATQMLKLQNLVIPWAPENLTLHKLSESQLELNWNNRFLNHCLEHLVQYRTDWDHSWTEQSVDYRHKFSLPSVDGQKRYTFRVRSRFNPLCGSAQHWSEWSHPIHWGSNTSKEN

[2] = biological target: T1, human IL-2Rγc (CD132 protein, Fc Tag) (23-254) (human); assay: competition phage ELISA; competitor phage clone SEQ ID NO 224; + = peptide competes with phage binding
[3] = biological target: T1, human IL-2Rγc (CD132 protein, Fc Tag) (23-254) (human); assay: competition phage ELISA; competitor phage clone SEQ ID NO 198; + = peptide competes with phage binding
[4] = biological target: T1, human IL-2Rγc (CD132 protein, Fc Tag) (23-254) (human); assay: competition phage ELISA; competitor phage clone SEQ ID NO 236; + = peptide competes with phage binding
[5] = biological target: T1, human IL-2Rγc (CD132 protein, Fc Tag) (23-254) (human); assay: competition phage ELISA; competitor phage clone SEQ ID NO 248; + = peptide competes with phage binding
[6] = biological target: T1, human IL-2Rγc (CD132 protein, Fc Tag) (23-254) (human); assay: competition phage ELISA; competitor phage clone SEQ ID NO 948; + = peptide competes with phage binding
[7] = biological target: T2, human IL-2Rβ (CD122 protein, Fc Tag) (27-239) (human) (UniProt P14784); assay: competition phage ELISA; competitor phage clone SEQ ID NO 58; + = peptide competes with phage binding
T2 sequence (looked up): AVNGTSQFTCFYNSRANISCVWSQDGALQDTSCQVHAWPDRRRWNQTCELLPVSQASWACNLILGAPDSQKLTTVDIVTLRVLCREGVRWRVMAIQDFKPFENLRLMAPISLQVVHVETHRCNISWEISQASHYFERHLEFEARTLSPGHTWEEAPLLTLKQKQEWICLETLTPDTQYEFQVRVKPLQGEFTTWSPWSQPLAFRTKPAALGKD

[8] = biological target: T2, human IL-2Rβ (CD122 protein, Fc Tag) (27-239) (human); assay: competition phage ELISA; competitor phage clone SEQ ID NO 83; + = peptide competes with phage binding
[9] = biological target: T2, human IL-2Rβ (CD122 protein, Fc Tag) (27-239) (human); assay: competition phage ELISA; competitor phage clone SEQ ID NO 170; + = peptide competes with phage binding
[10] = biological target: T2, human IL-2Rβ (CD122 protein, Fc Tag) (27-239) (human); assay: competition phage ELISA; competitor phage clone SEQ ID NO 1034; + = peptide competes with phage binding

Measured: binding

DCSMWEGVELCW [IL-2Rγc ligand SEQ ID NO: 224 (synthetic peptide)]
binds: [1] | [2] | [3] | [4] | [5]

SLLKCYNASTCASVF [IL-2Rγc ligand SEQ ID NO: 948 (synthetic peptide)]
binds: [6]

DLSDLSTFWLSQ [Modified ligand having amino acid SEQ ID NO: 248 (synthetic peptide)]
binds: [1] | [2] | [3] | [4] | [5]

MCWLEWGEWVGSCL [IL-2Rγc ligand SEQ ID NO: 236 (synthetic peptide)]
binds: [1] | [2] | [3] | [4] | [5]

RTCTEWENVVLCWV [IL-2Rγc ligand SEQ ID NO: 202 (synthetic peptide)]
binds: [1] | [2] | [3] | [4] | [5]

RWGDVGDLLMPL [IL-2Rβ ligand labelled SEQ ID NO: 1042 in Table 7 (synthetic peptide)]
binds: [7] | [8] | [9] | [10]
